Source: patent US20060252677A1
No constants are given. Whether binding was seen depends on the method and setting. Some binding calls cover weakened binding; strength is not graded here. Tags and fused reporters may be left off the sequences shown.

Protein sequences, listed by entry. Tags and fused reporters are not part of them. Residues count along the entry.
UniProt Q13224, residues 27-1484: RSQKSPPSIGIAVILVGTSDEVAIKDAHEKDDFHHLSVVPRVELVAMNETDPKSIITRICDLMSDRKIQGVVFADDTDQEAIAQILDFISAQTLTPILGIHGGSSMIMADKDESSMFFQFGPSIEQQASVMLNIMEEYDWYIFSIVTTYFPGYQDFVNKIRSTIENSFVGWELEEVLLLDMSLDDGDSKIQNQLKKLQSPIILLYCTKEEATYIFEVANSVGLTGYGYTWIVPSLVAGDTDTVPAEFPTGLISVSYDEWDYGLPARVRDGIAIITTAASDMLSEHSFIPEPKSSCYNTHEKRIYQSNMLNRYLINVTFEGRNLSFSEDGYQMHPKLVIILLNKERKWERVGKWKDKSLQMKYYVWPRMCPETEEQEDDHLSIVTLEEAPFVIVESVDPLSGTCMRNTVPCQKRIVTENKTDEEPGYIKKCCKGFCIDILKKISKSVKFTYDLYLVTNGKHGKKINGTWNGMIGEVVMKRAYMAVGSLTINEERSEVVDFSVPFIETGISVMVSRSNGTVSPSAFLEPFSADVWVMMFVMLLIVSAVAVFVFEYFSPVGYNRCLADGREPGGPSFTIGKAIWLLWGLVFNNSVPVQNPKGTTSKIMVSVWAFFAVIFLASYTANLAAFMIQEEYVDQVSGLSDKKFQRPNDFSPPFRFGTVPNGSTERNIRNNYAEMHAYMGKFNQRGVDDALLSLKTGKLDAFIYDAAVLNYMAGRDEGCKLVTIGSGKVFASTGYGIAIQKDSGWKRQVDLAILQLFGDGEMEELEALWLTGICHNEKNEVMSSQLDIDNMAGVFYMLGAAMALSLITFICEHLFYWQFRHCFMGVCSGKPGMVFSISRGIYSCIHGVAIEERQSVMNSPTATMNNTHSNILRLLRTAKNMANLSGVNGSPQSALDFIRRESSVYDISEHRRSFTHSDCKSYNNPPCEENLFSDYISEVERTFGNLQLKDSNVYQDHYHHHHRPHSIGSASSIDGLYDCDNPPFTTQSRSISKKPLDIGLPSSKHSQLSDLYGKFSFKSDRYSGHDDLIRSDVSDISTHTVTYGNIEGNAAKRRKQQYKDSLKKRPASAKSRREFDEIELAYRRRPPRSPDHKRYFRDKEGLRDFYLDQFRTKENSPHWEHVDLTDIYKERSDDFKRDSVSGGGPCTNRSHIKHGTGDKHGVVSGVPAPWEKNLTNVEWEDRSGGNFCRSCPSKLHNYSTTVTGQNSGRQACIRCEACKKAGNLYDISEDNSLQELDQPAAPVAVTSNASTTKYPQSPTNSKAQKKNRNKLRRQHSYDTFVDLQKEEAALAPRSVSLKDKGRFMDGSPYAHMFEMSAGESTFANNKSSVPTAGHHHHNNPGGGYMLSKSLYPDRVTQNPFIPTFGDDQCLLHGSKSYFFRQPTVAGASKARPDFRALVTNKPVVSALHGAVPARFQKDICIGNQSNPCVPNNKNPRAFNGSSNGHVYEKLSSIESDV

Legend:
[1] = target: fusion protein of NMDA receptor/2B subunit with GST (human) (UniProt Q13224); test: Overlay method, legend of FIG. 8
[2] = target: fusion protein of NMDA receptor/2B subunit with GST (human) (UniProt Q13224); test: Overlay method (far-Western): His-Protein-X extract on blotted GST-NMDA receptor/2B subunit, anti-His detection

binding [1]: binds | binding [2]: binds
B1: fusion protein of Protein-X (novel PSD, clone hj02537) with a 6x His-tag (protein, not shown: small tags and cut ends)
chain: MPALSTGSGSDTGLYELLAALPAQLQPHVDSQEDLTFLWDMFGEKSLHSLVKIHEKLHYYEKQSPVPILHGAAALADDLAEELQNKPLNSEIRELLKLLSKPNVKALLSVHDTVAQKNYDPVLPPMPEDIDDEEDSVKIIRLVKNREPLGATIKKDEQTGAIIVARIMRGGAADRSGLIHVGDELREVNGIPVEDKRPEEIIQILAQSQGAITFKIIPGSKEETPSKEGKMFIKALFDYNPNEDKAIPCKEAGLSFKKGDILQIMSQDDATWWQAKHEADANPRAGLIPSKHFQERRLALRRPEILVQPLKVSNRKSSGFRRSFRLSRKDKKTNKSMYECKKSDQYDTADVPTYEEVTPYRRQTNEKYRLVVLVGPVGVGLNELKRKLLISDTQHYGVTVPHTTRARRSQESDGVEYIFISKHLFETDVQNNKFIEYGEYKNNYYGTSIDSVRSVLAKNKVCLLDVQPHTVKHLRTLEFKPYVIFIKPPSIERLRETRKNAKIISSRDDQGAAKPFTEEDFQEMIKSAQIMESQYGHLFDKIIINDDLTVAFNELKTTFDKLETETHWVPVSWLHS
